Laboratory results: PubChem BioAssay AID743454 (Peter MacCallum Cancer Centre, 2014)
In all, the deposit lists about 18,000 reagents; shown is a random part of them. Of all reagents, 450 (2.5%) are marked active. 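Single biological run; no consistent viability z cut-off exists, so the class columns, not z-scores, define the calls.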 Entries without a mark were called inactive.

Aim: 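Search for knock-downs that restore vorinostat killing in resistant colon cancer cells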 (primary screen)
System: human HCT116-VR colon cancer cells, selected for vorinostat resistance
Reagent: siRNA pool against human genes, 40 nM siRNA pool
Time to read-out: vorinostat for 24 h, read-out about 72 h after transfection
Conditions: vorinostat at 2.5 µM final
Measured: 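Two measures, CellTiter-Fluor viability and luminescent caspase 3/7 activity, each as fold change against same-plate mock wells, mean of duplicates, then screen-wide robust z-score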
Direction: viability robust z-score: higher = more viable cells than screen typical; caspase robust z-score: higher = more caspase 3/7 activity than screen typical
Rule for the call: 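Hits are knock-downs in viability class RV1/RV2 or caspase class CA1/CA2, excluding ones that killed cells in the no-drug cell-count arm; hits then retested with single siRNAs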

The first 2 entries, ahead of the listing:
C10orf62 → viability hit class = no change; caspase hit class = no change; viability robust z-score = -0.02; caspase robust z-score = 0.84
FGF19 → viability hit class = no change; caspase hit class = no change; viability robust z-score = 0.45; caspase robust z-score = -0.34

Results, from the first entry:
C10orf62 → viability hit class = no change; caspase hit class = no change; viability robust z-score = -0.02; caspase robust z-score = 0.84
FGF19 → viability hit class = no change; caspase hit class = no change; viability robust z-score = 0.45; caspase robust z-score = -0.34
PDIA5 → viability hit class = no change; caspase hit class = no change; viability robust z-score = -1.18; caspase robust z-score = -0.04
CYP2C18 → viability hit class = no change; caspase hit class = no change; viability robust z-score = 0.4; caspase robust z-score = 0.66
AHI1 → viability hit class = no change; caspase hit class = no change; viability robust z-score = 0.4; caspase robust z-score = 1.15
NDUFB9 → viability hit class = no change; caspase hit class = no change; viability robust z-score = 0.88; caspase robust z-score = -0.15
TSKS → viability hit class = no change; caspase hit class = no change; viability robust z-score = 0.24; caspase robust z-score = 1.62
FSTL1 → viability hit class = no change; caspase hit class = no change; viability robust z-score = -0.5; caspase robust z-score = 1.81
MAT1A → viability hit class = no change; caspase hit class = no change; viability robust z-score = 0.16; caspase robust z-score = -0.47
SHMT1 → viability hit class = no change; caspase hit class = no change; viability robust z-score = 0.3; caspase robust z-score = 0.9
GRK2 → viability hit class = no change; caspase hit class = no change; viability robust z-score = -0.3; caspase robust z-score = -0.06
DYNC2LI1 → viability hit class = no change; caspase hit class = no change; viability robust z-score = -0.62; caspase robust z-score = 2.5
TLE6 → viability hit class = no change; caspase hit class = no change; viability robust z-score = 1.3; caspase robust z-score = -0.36
MEIOC → viability hit class = no change; caspase hit class = no change; viability robust z-score = 1; caspase robust z-score = -0.5
